# Data as given in PubChem BioAssay AID1259331 (Drosophila RNAi Screening Center, 2017)
# Assay: 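Genes whose knock-down changes cell survival under toxic zinc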 (primary screen)
# Cell system: Drosophila S2R+ cells
# Reagent: long dsRNA against Drosophila genes
# Timing: 5 days (4 days knock-down, then 1 day zinc)
# Conditions: zinc chloride at 15 mM final level for 1 day
# Measurement: 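Total cellular ATP measured by luciferase luminescence as a viability proxy, turned into Z scores from three plate copies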
# Reading the numbers: mean Z score: higher = more ATP than other wells, better survival under zinc; ATP luminescence: higher = more ATP, more viable cells
# Active means: 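Hit when the absolute Z score is greater than 1.5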
# Calls: active = hit, ATP up or down; inactive = not a hit
# In all, the deposit lists about 3,100 reagents; shown is a part drawn at random. In the full data, 126 (4.1%) are marked active. 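Calls are per reagent; zinc was so toxic that few knock-downs lowered ATP further, so most hits raise ATP.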 Raw values are not corrected between plates. Entries without a mark were called inactive. Names joined by + are all predicted targets of the reagent. No sequences are given here. Not given: the amount of reagent.
target gene,PubChem SID,mean Z score,"ATP luminescence, replicate 1","ATP luminescence, replicate 2"
NKCC (sodium potassium chloride cotransporter),SID104191932,-0.09,30045,30799
NKCC (sodium potassium chloride cotransporter),SID104192103,-0.229,75295,55488
Vha16-2 (Vacuolar H[+] ATPase 16kD subunit 2),SID104190665,-0.293,71453,54356
Vha16-2 (Vacuolar H[+] ATPase 16kD subunit 2),SID104204049,-0.153,53961,53430
CG13426,SID104186180,-0.385,62930,70374
smog,SID104180126,0.608,59071,49572
smog,SID104202410,0.623,58986,53721
smog,SID104205767,0.127,62440,54973
mnd (minidiscs),SID104191162,0.0155,77616,60829
mnd (minidiscs),SID104217183,-0.176,59346,58456
Cpes (Ceramide phosphoethanolamine synthase),SID104206047,-0.3,57991,51989
emb (embargoed),SID104183320,0.555,57905,70579
CG33337,SID104205544,0.278,53052,67063
CG33337,SID104217296,0.022,57365,61695
CG13796,SID104203339,-0.296,58094,51164
Or46a + asRNA:CR43467,SID104187282,1.8 (active),95160,1.11e5
Or46a + asRNA:CR43467,SID104201297,-0.125,49555,41599
Or46a + asRNA:CR43467,SID104208198,-0.655,45708,56984
Grl40a (Gustatory receptor-like 40a),SID104183469,-0.247,37605,44634
Grl40a (Gustatory receptor-like 40a),SID104217214,-0.067,61123,55702
CG8249,SID104186917,-0.497,63239,60916
CG8249,SID104217351,-0.292,53224,50887
Cln7,SID104190797,-0.466,28125,27130
gb (genderblind),SID104195753,-0.45,39473,42885
gb (genderblind),SID104203427,0.339,59689,57780
Nup107 (Nucleoporin 107kD),SID104181791,0.554,62059,71711
Dop1R1 (Dopamine 1-like receptor 1),SID104192813,-0.189,41171,40948
Dop1R1 (Dopamine 1-like receptor 1),SID104196444,-1.05,31335,42696
Dop1R1 (Dopamine 1-like receptor 1),SID104202774,-0.454,41864,55025
ppk5 (pickpocket 5),SID104191284,-0.524,58711,55985
ppk5 (pickpocket 5),SID104217123,-0.474,55529,51629
"Alg10 (ALG10 alpha-1,2-glucosyltransferase)",SID104190684,0.2,81779,59706
"Alg10 (ALG10 alpha-1,2-glucosyltransferase)",SID104217026,-0.0893,49137,50618
Cse1 (Chromosome segregation 1),SID104205401,6.7 (active),1.57e5,1.45e5
CG18788,SID104182489,-0.454,39662,30610
"Sr-CIII (Scavenger receptor class C, type III)",SID104201784,0.11,54579,59277
Ir94b (Ionotropic receptor 94b),SID104201183,0.00714,46678,46955
"Alg14 (ALG14, UDP-N-acetylglucosaminyltransferase subunit)",SID104199775,0.353,70081,73752
CR7448 (pseudo),SID104191620,-0.286,28142,33250
CR7448 (pseudo),SID104201939,1.06,61558,75038
CG9903,SID104200005,0.0823,71419,63323
CG9903,SID104217232,-0.172,54013,62038
tank,SID104180253,-0.335,47319,39319
Oatp58Dc (Organic anion transporting polypeptide 58Dc),SID104184155,-0.175,27076,31262
Oatp58Dc (Organic anion transporting polypeptide 58Dc),SID104217261,0.144,66257,59226
santa-maria,SID104180786,-0.151,40262,40896
santa-maria,SID104181972,-0.0185,54304,57717
botv,SID104185741,-0.577,26314,25348
botv,SID104206578,-0.242,56845,57185
HisT (Histamine transporter),SID104184843,0.0519,41891,42371
HisT (Histamine transporter),SID104186197,-0.626,26668,27302
ppk27 (pickpocket 27),SID104201747,-0.0061,48354,47440
Oatp26F (Organic anion transporting polypeptide 26F),SID104181941,-0.168,49934,40193
Oatp26F (Organic anion transporting polypeptide 26F),SID104182487,-0.42,67827,66147
Oatp26F (Organic anion transporting polypeptide 26F),SID104205890,-0.242,50488,62467
CG16723,SID104194930,-0.0807,34725,58043
CG16723,SID104206688,-1.04,53721,36634
polyph (polyphemus),SID104186046,0.0496,77546,69275
CG9459,SID104196288,-0.712,38582,51269
CG9459,SID104217034,-0.0139,56053,47309
Tl (Toll),SID104196677,-0.525,38033,40839
Tl (Toll),SID104217072,1.02,69224,60358
ppk13 (pickpocket 13),SID104182174,-0.577,41788,31245
Nox (NADPH oxidase),SID104186388,-0.0109,65554,71591
Nox (NADPH oxidase),SID104186649,-0.286,43976,44531
Nox (NADPH oxidase),SID104206360,-0.00695,59157,58951
CG11961,SID104185891,-0.378,27079,27369
CG11961,SID104217104,1.92 (active),81059,70097
